In all, about 52,000 sequences went through this assay and about 210 (0.4%) were called active.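 How the source made its calls: active means gene whose silencing raises cell survival under the drug, median off-target-corrected z-score across its silencing RNAs 2 or more; inactive means the rest.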 This is one part of the list.
Assay: Resistance to Poly (ADP-Ribose) Polymerase inhibitor: Gene Identification via Genome-wide siRNA Screen
Details: mouse BRCA2 R2336H ES cells, olaparib, CellTiter-Glo viability; active compounds read high
Method in brief: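 Genome-wide siRNA screen (3 siRNAs/gene, 20 nM) in mouse ES cells carrying hypomorphic BRCA2 R2336H; olaparib 500 nM added 48 h post-transfection, CellTiter-Glo viability 72 h later. Normalized to plate-median negative control; MAD z-scores, gene median, seed-adjusted.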

For GGAACAAAGAAGUCAAAGATT against Olfr16, which z-score is on record?
Its z-score is inactive: 0.219.

For ACCUGGGCCUAUGCCUUACTT against Ascl2, which z-score is on record?
The z-score was inactive: -1.78.

For GGGAAGUUUCGCUACCUUGTT against Trik, which z-score is on record?
Its z-score is inactive: -0.388.

With GGCAUUUUAUAAGUUUGAGTT against Mitf as the sequence, how does the z-score read?
The z-score was inactive: 1.19.

For “GCCUGGAUUUAUCGAAUUATT against 2610524H06Rik”, which z-score is on record?
Its z-score is inactive: 0.937.

With GGCUGGUUUAUUUGUGGACTT against Tmem2 as the sequence, how does the z-score read?
The z-score was inactive: -0.0273.

Which z-score does the source give for CCCUUAUAUUUCUAACAGUTT against Chchd2 here?
Its z-score is inactive: 1.22.

With GCCUUGGUACACUAAACUCTT against Rhcg as the sequence, how does the z-score read?
Its z-score is inactive: -0.685.

With GGCACAGUAUGUACUAACUTT against Gpld1 as the sequence, how does the z-score read?
The z-score was inactive: -0.58.

Which z-score does the source give for “GCUACAGUACCCAUACUAGTT against 8030463A06Rik” here?
Its z-score is inactive: -2.02.

With CGCUUACAAGCUAACCUCATT against Mrgprd as the sequence, how does the z-score read?
The z-score was inactive: -0.608.

With GGUGAAGGCCAUCAAUUUCTT against Gabbr1 as the sequence, how does the z-score read?
The z-score was inactive: -1.82.

Which z-score does the source give for “GGUCAUAAGUUUCUCAUCUTT against 2610020H15Rik” here?
Its z-score is inactive: 1.83.

For GGUGAUCAAUCCUCUAAUATT against Cri2, which z-score is on record?
The z-score was inactive: 3.03.

With GCGAUUAAGUCUGAAUUGUTT against C1qr1 as the sequence, how does the z-score read?
Its z-score is inactive: 1.68.

With GGUGCACUCUGUCAGUUCATT against Col27a1 as the sequence, how does the z-score read?
Its z-score is inactive: -1.07.

Which z-score does the source give for GGAUCCGAACAUCCUCAGGTT against Hr here?
Its z-score is inactive: 0.609.

For GCGGAAACUCUCGAAAGUGTT against Dhx34, which z-score is on record?
The z-score was inactive: 0.369.

Which z-score does the source give for GGAGAAGAGUUUCCUCUGATT against Rtn4ip1 here?
The z-score was inactive: -1.6.

With “GGUAUGGCAUUUCAAACCUTT against 5230400G24Rik” as the sequence, how does the z-score read?
The z-score was inactive: -0.427.

With GAAUGAAAGGUACGAAAAATT against Ang4 as the sequence, how does the z-score read?
The z-score was inactive: -0.00494.

With GGUUCUGGAAGAAGAAAAGTT against AF322649 as the sequence, how does the z-score read?
Its z-score is inactive: -0.855.

For GCUGCUUGUCCUAAGUUGATT against Aqp8, which z-score is on record?
The z-score was inactive: 0.391.

With GGAACUGCUCAAGAUCAAGTT against Plagl2 as the sequence, how does the z-score read?
The z-score was inactive: -1.34.

For GGAUCAUUGAUGUCAUCUATT against Abcb10, which z-score is on record?
The z-score was inactive: -2.66.

Which z-score does the source give for CGGUCUUUAUACACAUAUATT against Wnt7a here?
Its z-score is inactive: -1.06.

Which z-score does the source give for GCUACUUCGGGAAUUUUACTT against ttc21a here?
Its z-score is inactive: 1.05.

For GGCUUCCAGUACCAUUAGGTT against Ucp1, which z-score is on record?
Its z-score is inactive: -0.973.

Which z-score does the source give for GGUUGGCAAGUUCCUGUAUTT against Cdk3 here?
Its z-score is inactive: 1.64.

For GGAAUCAAUAAGAAUGACGTT against Tln2, which z-score is on record?
Its z-score is inactive: 0.731.

With GCCCUUGCACUAUUUUUCCTT against Olfr1218 as the sequence, how does the z-score read?
Its z-score is inactive: 0.236.

For GGCUGUAUGUAGUGAAUAUTT against Nck2, which z-score is on record?
Its z-score is inactive: -0.875.

Which z-score does the source give for GGCUGGAUCCUCAUUGACCTT against Kctd10 here?
Its z-score is inactive: -0.207.

For “GGAUUGCUGUAAAAUACAATT against D11Ertd497e”, which z-score is on record?
The z-score was inactive: -0.945.

Which z-score does the source give for GGAACAAGGUCCUAAACCATT against Gtf2f1 here?
The z-score was inactive: -0.0997.

With GGAACAGAAAGCAGUGUACTT against Dnajc9 as the sequence, how does the z-score read?
Its z-score is inactive: -1.08.

With GGGCUGGAUUUUCUCCAGATT against Crsp7 as the sequence, how does the z-score read?
Its z-score is inactive: -0.334.

With GUUGGCAUAUUUUAUGGCATT against Olfr1033 as the sequence, how does the z-score read?
Its z-score is inactive: 0.175.

Which z-score does the source give for “GCACAGCUACCAUUCACAATT against 4432416J03Rik” here?
The z-score was inactive: 1.2.

For GGUGUUAAGACUAAAACUUTT against Plxdc2, which z-score is on record?
The z-score was inactive: 0.0452.

For GCUUACCUAGUGCUCUUAATT against Kctd15, which z-score is on record?
The z-score was inactive: -1.3.

Which z-score does the source give for GAUACAGAUCGCCAAGAGCTT against H2-D4 here?
The z-score was inactive: -0.422.

With GCUAGACAUCGGUUCUUAUTT against Eomes as the sequence, how does the z-score read?
The z-score was inactive: -0.909.

With GCUGGAUAUGGUCAAGGCGTT against Ndufa5 as the sequence, how does the z-score read?
Its z-score is inactive: 0.854.

For GCUUACCUUGUUCUUAAAGTT against AI325464, which z-score is on record?
The z-score was inactive: 0.388.

For GGAUAUUCUUCCUCUCUUUTT against MGC91106, which z-score is on record?
Its z-score is inactive: -1.43.

Which z-score does the source give for GCUUCUGACAUAUUGUGCATT against Phxr2 here?
Its z-score is inactive: 0.651.

With GGCCUUCAUGGAUUAUACCTT against Serpinb9 as the sequence, how does the z-score read?
Its z-score is inactive: 0.161.

Which z-score does the source give for “GCUCUCGGUUCCACUUUCATT against 4932438H23Rik” here?
Its z-score is inactive: -2.27.

For CCUGCUUAAAGAUUACCCATT against Flt3l, which z-score is on record?
The z-score was inactive: -2.68.

With GGGAAGAGCAUGUUUGCUGTT against Surf4 as the sequence, how does the z-score read?
Its z-score is inactive: 0.587.

For CCUAUGUGUACUUCAUCCUTT against Elovl1, which z-score is on record?
Its z-score is inactive: 1.45.

With CCAAACCAGUGGAGUCCAUTT against BC061928 as the sequence, how does the z-score read?
The z-score was inactive: -0.00878.

For CCAAUUAUUAUCCAAGGGCTT against Slc16a6, which z-score is on record?
Its z-score is inactive: 0.355.

With “GGCCUAUGCGGAGGAGUUATT against 2700067E09Rik” as the sequence, how does the z-score read?
Its z-score is inactive: 1.78.

Which z-score does the source give for “CCAGAGAGGUUUAUAAGUCTT against 2700038I16Rik” here?
Its z-score is inactive: -0.467.

With GGAAUGCCUGCAUAAGUUUTT against Th1l as the sequence, how does the z-score read?
Its z-score is inactive: -1.71.

Which z-score does the source give for GGGAAGACAAGAACAACUUTT against Pitrm1 here?
The z-score was inactive: -0.362.

With GGUGGUCACCAAGAAGUUUTT against Prps2 as the sequence, how does the z-score read?
Its z-score is inactive: 0.754.

Which z-score does the source give for GGAUCAGACACCUGUUUUATT against Pkhd1 here?
Its z-score is inactive: 1.16.

For “GAAGAAACUCAUGACAAAUTT against 4930503B16Rik”, which z-score is on record?
The z-score was inactive: 0.377.

Which z-score does the source give for “GCAGAUUCGGAAGUAAACATT against D130054N24Rik” here?
The z-score was inactive: 0.5.

For CCUCACUCCUUUCUGUAAATT against BC021785, which z-score is on record?
The z-score was inactive: -0.743.

Which z-score does the source give for GGAAAUCUGCUUACUUUUGTT against Ppm1l here?
Its z-score is inactive: 0.67.

With “CCAGAUGGGAUACCUCUACTT against 1810015P03Rik” as the sequence, how does the z-score read?
Its z-score is inactive: 0.193.

Which z-score does the source give for GGAGGAAGCUGAUGAGAAUTT against Stx4a here?
The z-score was inactive: -0.721.
